Experimental data reported in article doi:10.1101/2021.06.09.447550.

Chains of the proteins cited; added tags and fusions are not shown.
UniProt P48431: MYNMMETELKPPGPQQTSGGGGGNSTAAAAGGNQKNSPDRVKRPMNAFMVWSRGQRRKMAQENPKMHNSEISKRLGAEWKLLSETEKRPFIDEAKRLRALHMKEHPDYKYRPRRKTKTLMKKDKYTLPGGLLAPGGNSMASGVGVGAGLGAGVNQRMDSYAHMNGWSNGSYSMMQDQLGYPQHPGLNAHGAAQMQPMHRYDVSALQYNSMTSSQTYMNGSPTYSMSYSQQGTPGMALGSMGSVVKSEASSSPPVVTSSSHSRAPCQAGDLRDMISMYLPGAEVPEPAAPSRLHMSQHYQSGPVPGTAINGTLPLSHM
UniProt Q93009: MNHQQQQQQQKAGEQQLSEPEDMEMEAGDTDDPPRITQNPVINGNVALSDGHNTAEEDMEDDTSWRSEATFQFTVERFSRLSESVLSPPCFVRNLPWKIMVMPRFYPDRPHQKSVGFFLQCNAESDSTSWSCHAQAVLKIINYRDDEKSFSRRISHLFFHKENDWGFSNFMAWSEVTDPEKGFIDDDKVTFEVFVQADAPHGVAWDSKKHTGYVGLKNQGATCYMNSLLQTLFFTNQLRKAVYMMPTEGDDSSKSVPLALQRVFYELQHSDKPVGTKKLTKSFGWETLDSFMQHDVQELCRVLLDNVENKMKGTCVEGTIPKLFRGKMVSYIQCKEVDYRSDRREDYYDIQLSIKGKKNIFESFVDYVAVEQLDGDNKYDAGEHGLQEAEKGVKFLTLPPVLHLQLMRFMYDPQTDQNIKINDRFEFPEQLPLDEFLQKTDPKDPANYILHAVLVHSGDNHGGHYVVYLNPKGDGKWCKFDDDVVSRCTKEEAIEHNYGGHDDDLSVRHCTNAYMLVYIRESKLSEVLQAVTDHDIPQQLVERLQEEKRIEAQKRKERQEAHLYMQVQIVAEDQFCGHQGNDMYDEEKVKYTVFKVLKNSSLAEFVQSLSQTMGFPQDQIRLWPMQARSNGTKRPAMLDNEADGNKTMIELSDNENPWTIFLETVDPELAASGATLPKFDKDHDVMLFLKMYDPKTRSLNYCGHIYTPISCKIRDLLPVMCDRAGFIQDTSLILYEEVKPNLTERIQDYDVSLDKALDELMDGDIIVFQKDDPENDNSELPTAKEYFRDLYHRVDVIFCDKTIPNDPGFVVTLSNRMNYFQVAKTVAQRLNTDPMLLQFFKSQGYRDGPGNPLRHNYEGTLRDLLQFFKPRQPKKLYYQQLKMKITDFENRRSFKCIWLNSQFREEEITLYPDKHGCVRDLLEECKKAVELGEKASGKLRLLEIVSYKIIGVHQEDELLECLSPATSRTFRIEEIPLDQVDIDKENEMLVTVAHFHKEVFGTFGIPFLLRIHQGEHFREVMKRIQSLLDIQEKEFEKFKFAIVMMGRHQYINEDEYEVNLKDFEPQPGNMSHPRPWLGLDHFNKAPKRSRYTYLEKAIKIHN

Target: Flag-SOX2 (human) (UniProt P48431)
Test: affinity purification with mass spectrometry

## HAUSP (Herpesvirus-Associated Ubiquitin-Specific Protease) (from UniProt Q93009 1-1102) (enzyme)
  binding: binds

No constants are given. Whether binding was seen depends on the method and setting. Binding seen in cells or lysates may run through a third protein. Here binding means that the protein was enriched with, or labelled near, the bait; the list need not be complete.
